Experimental data: PubChem BioAssay AID1259424 (University of Nebraska Medical Center, 2018)

- Purpose: 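Find knockdowns that reproduce the expression shifts seen after KSR1 loss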 (primary screen)
- System: human HCT116 colon cancer cells
- Knock-down reagent: siRNA pool against human genes, 50 nM
- Detection: 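Six signature mRNAs by branched-DNA multiplex assay, scaled to two housekeeping genes and non-targeting median, log2; matched to mean KSR1 knockdown profile by Pearson correlation and euclidean distance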
- Reading the numbers: mean correlation with KSR1 profile and KSR1 correlation: higher = expression change more like KSR1 knockdown; mean distance from KSR1 profile: higher = expression change less like KSR1 knockdown
The whole screen tested about 14,000 reagents; below is a part drawn at random. 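Higher correlation or smaller distance means closer resemblance to KSR1 loss; control wells, including KSR1 knockdowns, recur on many plates.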 A reagent listed more than once was tested more than once; the source does not tell the runs apart. Not stated in the record: the time to read-out.

| gene | mean correlation with KSR1 profile | mean distance from KSR1 profile | KSR1 correlation, replicate 1 | KSR1 correlation, replicate 2 | KSR1 correlation, replicate 3 |
| --- | --- | --- | --- | --- | --- |
| NDUFS4 | 0.51 | 0.737 | 0.681 | 0.315 | 0.596 |
| GSDMB | -0.129 | 4.14 | 0.718 | -0.157 | 0.282 |
| TAP1 | -0.466 | 3.7 | -0.479 | -0.55 | -0.49 |
| PSMG1 | -0.321 | 1.78 | -0.493 | -0.167 | -0.148 |
| CLCN5 | -0.268 | 1.93 | -0.313 | -0.669 | -0.125 |
| EPHA4 | 0.258 | 2.34 | 0.423 | 0.224 | -0.0943 |
| KDM6A | -0.466 | 1.5 | -0.0984 | -0.584 | -0.448 |
| GNGT1 | -0.0321 | 3.31 | -0.083 | -0.249 | -0.0598 |
| KDM2A | 0.545 | 1.11 | 0.418 | 0.481 | 0.524 |
| FAM215A | -0.523 | 2.68 | -0.131 | -0.729 | -0.792 |
| MPP1 | 0.102 | 2.06 | 0.686 | -0.0707 | -0.258 |
| LPCAT3 | -0.169 | 2.21 | -0.188 | -0.13 | -0.118 |
| SLCO1A2 | -0.809 | 4.35 | -0.71 | -0.668 | -0.847 |

Sorted by “KSR1 correlation, replicate 2” (high to low): some entries from above
| gene | mean correlation with KSR1 profile | mean distance from KSR1 profile | KSR1 correlation, replicate 1 | KSR1 correlation, replicate 2 | KSR1 correlation, replicate 3 |
| --- | --- | --- | --- | --- | --- |
| EPHA4 | 0.258 | 2.34 | 0.423 | 0.224 | -0.0943 |
| PSMG1 | -0.321 | 1.78 | -0.493 | -0.167 | -0.148 |
| KDM6A | -0.466 | 1.5 | -0.0984 | -0.584 | -0.448 |
| CLCN5 | -0.268 | 1.93 | -0.313 | -0.669 | -0.125 |

Continued.
| gene | mean correlation with KSR1 profile | mean distance from KSR1 profile | KSR1 correlation, replicate 1 | KSR1 correlation, replicate 2 | KSR1 correlation, replicate 3 |
| --- | --- | --- | --- | --- | --- |
| POU3F3 | 0.15 | 1.98 | 0.149 | 0.482 | 0.00257 |
| STRN4 | 0.302 | 2.31 | 0.231 | 0.15 | 0.0367 |
| CSF2RB | 0.0157 | 1.88 | -0.00358 | -0.25 | 0.164 |
| CRYAA | -0.142 | 3.28 | -0.0655 | -0.00598 | -0.416 |
| NPR2 | 0.5 | 1.4 | 0.437 | 0.592 | 0.631 |
| NPR2 | -0.1 | 2.06 | 0.0594 | -0.0633 | -0.122 |
| CD1B | -0.78 | 4.19 | -0.708 | -0.783 | -0.723 |
| COPS6 | -0.695 | 3.97 | -0.66 | -0.737 | -0.624 |
| NHS | 0.31 | 1.21 | 0.554 | 0.568 | 0.0314 |
| NOL6 | -0.781 | 2.33 | -0.853 | -0.858 | -0.838 |
| NECAB2 | -0.603 | 5.14 | -0.454 | -0.613 | -0.444 |
| INMT | -0.339 | 3.68 | -0.16 | -0.457 | -0.273 |
| ASNSD1 | -0.839 | 2.47 | -0.787 | -0.713 | -0.787 |
| NKX6-1 | 0.0487 | 2.47 | 0.237 | 0.215 | 0.0354 |
| STAB2 | -0.601 | 2.74 | -0.432 | -0.718 | -0.597 |
| SVIL | 0.45 | 1.74 | 0.255 | 0.191 | 0.445 |
| TERF1 | -0.223 | 1.94 | -0.253 | -0.52 | -0.246 |
| EHD4 | 0.176 | 1.72 | 0.129 | -0.0505 | -0.293 |
| SEPTIN2 | 0.323 | 3.19 | 0.205 | 0.414 | 0.159 |
| URB2 | -0.514 | 2.21 | -0.52 | -0.486 | -0.397 |
| FAT4 | 0.65 | 1.96 | 0.884 | 0.534 | 0.486 |
